From publication PMC7824358, “The Influence of the Mixed DPC:SDS Micelle on the Structure and Oligomerization Process of the Human Cystatin C” (Membranes, 2020)
These are yes or no findings as the source states them, for the method shown. Some results given as binding are weak or reduced against the parent protein; the word gives no strength.

Target: human cystatin C (hCC) wild-type (human) (UniProt P01034)
Test: SEC; analytical gel filtration, Superdex 75 PC 3.2/30, eluted with PBS; hCC WT monomer 30 μM in PBS incubated 24 h at 37 °C in DPC solution; monomer to dimer; both purified

B1: human cystatin C (hCC) wild-type (natural protein, UniProt P01034 27-146, looked up)
chain: SSPGKPPRLVGGPMDASVEEEGVRRALDFAVGEYNKASNDMYHSRALQVVRARKQIVAGVNYFLDVELGRTTCTKTQPNLDNCPFHDQPHLKRKAFCSFQIYAVPWQGTMTLSKSTCQDA
notes: human cystatin C, expressed from the pHD313 vector behind the E. coli OmpA signal peptide; Used as a monomer sample and as a dimer sample made by incubation at pH 4.0 and separated by SEC; also called hCC WT; WT
- binding: binds weakly
